Laboratory results published in PubChem BioAssay AID504648 (National Center for Advancing Translational Sciences (NCATS), 2011).
Values joined by “and” are separate entries in the source; they are usually repeats but may differ in a detail not shown here. Equal entries are not always repeated. In all, about 390,000 compounds went through this assay and about 610 (0.16%) were called active. Inconclusive means that the source gave no clear call. Such entries were picked first, then a sample of the others. Calls follow the shape of the dose curve; as a rule, active = well fitted inhibition curve with a large enough effect; inconclusive = small, poorly fitted or top-dose-only effect, or effect the other way, or another doubt; inactive = no such curve, though single readings can be large or run the other way. Potencies of inconclusive entries are doubtful fits and often do not repeat.

Assay: Nrf2 qHTS screen for inhibitors: counterscreen for cytotoxicity
Settings: A549 ARE-Fluc cells, CellTiter-Fluor viability, 18-24 h; activity change, negative = cytotoxicity: at 46 µM (top of the series)
In short: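 A549 ARE_Fluc cells in 5% FBS OPTI-MEM were exposed to compounds in concentration-response for 18-24 h at 37 deg C. Viability was read by CellTiter-Fluor fluorescence (Ex 405/Em 525) after 30 min, before the luciferase read.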
% is scaled to controls: 0 for no effect and ±100 for the full control effect; potency is read from the fitted curve at half-maximal effect.

Row | SMILES | Potency | activity change, negative = cytotoxicity
1 | O=C1Nc2ccccc2S/C1=C/Nc1cccc(Cl)c1 | inconclusive: 25.9 µM [falling, partial curve] | 
2 | CCCn1c(=O)c2c(nc3n2CCCN3CCc2ccccc2)n(C)c1=O |  | inactive: -11.4%
3 | Cc1ccc(CCNc2ncnc(Cl)c2N)cc1 | inconclusive: 25.9 µM [falling, partial curve, poor fit] | 
4 | CCC(C)(C)NC(=O)C(c1ccc(OC)cc1)N(C(=O)CCC(=O)Nc1cc(C)on1)c1cccc(F)c1 (configuration not stated) | inconclusive: 14.6 µM [falling, partial curve] | 
5 | COc1ccc(NC(=O)CC2C(=O)N(c3ccc(F)cc3)C(=O)N2Cc2ccc3c(c2)OCO3)cc1 (configuration not stated) |  | inactive: 1.85%
6 | O=C(CCNS(=O)(=O)c1ccc2c(c1)CCC(=O)N2)NCc1cccnc1 | inconclusive: 10.3 µM [activator, partial curve, poor fit] | 
7 | O=C(NCCN1CCOCC1)c1ccc(CSCc2cccc(Cl)c2)o1 | inconclusive: 4.61 µM [activator, partial curve, poor fit] | 
8 | CCOC(=O)N1CCC(NC(=O)c2ccc3c(c2)N(Cc2ccc(C)cc2)CCS3)CC1 |  | inactive: -0.731%
9 | O=C1/C(=C/c2ccccc2F)SC(=S)N1CCC(=O)N1CCCCC1CCO (configuration not stated) | inconclusive: 20.6 µM [falling, partial curve, poor fit] | 
10 | CCCn1c(=N)c(C(=O)NC2CCCC2)cc2c(=O)n3cccc(C)c3nc21 | inconclusive: 25.9 µM [activator, partial curve, poor fit] and inconclusive: 16.4 µM [activator, partial curve, poor fit] | 
11 | COCCNC(=O)c1cc2sc3ccccc3c2s1 |  | inactive: 2.58%
12 | COC(=O)c1sc(N2C(=O)C(O)=C(C(=O)c3ccc(C)o3)C2c2cccs2)nc1C (configuration not stated) | inconclusive: 25.9 µM [falling, single point] | 
13 | O=C(NC(=S)Nc1ccc(Oc2ccccc2)cc1)c1ccc(Cl)cc1 |  | inactive: -20.3%
14 | O=[N+]([O-])c1ccc(N2CCOCC2)cc1NCCCO | inconclusive: 18.4 µM [falling, partial curve, poor fit] | 
15 | Cc1cccc(/C(N)=N/OC(=O)c2ccc(Cl)cc2Cl)c1 | inconclusive: 29.1 µM [falling, single point] | 
16 | COc1ccccc1NS(=O)(=O)c1cc(N2Cc3ccccc3C2=N)ccc1N1CCOCC1 | inconclusive: 6.51 µM [falling, partial curve, poor fit] | 
17 | Clc1ccc(Cn2ncc3c(NCc4ccco4)ncnc32)c(Cl)c1 | inconclusive: 25.9 µM [falling, partial curve, poor fit] | 
18 | O=C(CC1C(=O)NCCN1CC1CCCCC1)NCc1cccc(F)c1F (configuration not stated) |  | inactive: -6.62%
19 | O=C(O)CC(C(=O)O)N1C(=O)/C(=C/C=C/c2ccco2)SC1=S (configuration not stated) | inconclusive: 13 µM [falling, partial curve, poor fit] | 
20 | CC12CCC(C/C1=N\N=C1\NC(=O)/C(=C\c3ccc(Cl)cc3)S1)C2(C)C (configuration not stated) | inconclusive: 23.1 µM [falling, partial curve, poor fit] | 
21 | COc1cc(CNCCc2ccc(S(N)(=O)=O)cc2)ccc1OCc1ccc(Cl)cc1 | inconclusive: 29.1 µM [falling, single point] | 

Row | SMILES | Potency | activity change, negative = cytotoxicity
22 | COc1ccccc1NC(=O)CSc1nnc2c3ccccc3n(C(C)C)c2n1 | inconclusive: 10.3 µM [falling, partial curve, poor fit] | 
23 | COc1ccc(-c2cc3ccc(OCC(C)=O)cc3oc2=O)cc1OC |  | inactive: -1.65%
24 | O=C(O)c1ccc(NC(=O)c2cccc(N3C(=O)C4C5CCC(C5)C4C3=O)c2)cc1 (configuration not stated) |  | inactive: -15.3%
25 | COc1cc(C2CC(=O)NC3=C2C(=O)CC(C)(C)C3)cc(OC)c1O (configuration not stated) | inconclusive: 6.51 µM [falling, single point] | 
26 | Cc1[nH]n(-c2ccccc2)c(=O)c1N=Nc1ccccc1O | inconclusive: 20.6 µM [falling, single point] | 
27 | Cc1ccc(C2NC(=O)c3c(sc4c3CCN(C)C4)N2)o1 (configuration not stated) |  | inactive: -0.292%
28 | CCOC(=O)c1cccc(NC(=O)Cn2c(=O)nc(-c3ccccc3F)c3cc(Cl)ccc32)c1 | inconclusive: 25.9 µM [falling, partial curve, poor fit] | 
29 | CCOC(=O)c1cc(-c2ccccc2)n(CCC(=O)NC2CCCCC2)c1C |  | inactive: 14.7%
30 | CCN(C(=O)CSc1nc2ccccc2n1CC(=O)NCc1ccc(OC)cc1)c1ccccc1 |  | inactive: 10%
31 | Cc1cccc(-n2c(SCC(N)=O)nc3c(c2=O)C2(CCCCC2)Cc2ccccc2-3)c1 | inconclusive: 18.4 µM [falling, partial curve, poor fit] | 
32 | CC(=O)c1ccc2c(c1)Nc1ccccc1S2 |  | inactive: -1.3%
33 | COc1ccc(/C(C)=N/OCC(=O)N=Nc2c(O)[nH]c3ccccc23)cc1 | inconclusive: 25.9 µM [falling, partial curve, poor fit] | 
34 | COc1cc(/C=C2\SC(=O)N(CC(=O)Nc3ccccc3F)C2=O)cc(Cl)c1O |  | inactive: -13.8%
35 | CCCS(=O)(=O)c1ncc(Cl)c(C(=O)N2CCN(c3ccc(OC)cc3)CC2)n1 | inconclusive: 16.4 µM [falling, single point] | 
36 | CCOc1ccc(C(c2c(O)nc(SC)[nH]c2=O)c2c(O)nc(SC)[nH]c2=O)cc1 |  | inactive: 6.11%
37 | N#C/C(=C\c1ccc(Oc2ccc(C(F)(F)F)cc2[N+](=O)[O-])cc1)c1nc2ccccc2[nH]1 | inconclusive: 10.3 µM [falling, partial curve, poor fit] | 
38 | COC1=CC(=O)c2c(ccc3ncnc(N)c23)C1=O | active: 7.31 µM | 
39 | CN(Cc1ccccc1)C(=O)c1nc[nH]c1C(=O)N1CCN(C(=O)OC(C)(C)C)CC1 |  | inactive: -2.61%
40 | COc1ccccc1NC(=O)N(Cc1ccco1)Cc1cc2cc(C)cc(C)c2[nH]c1=O | inconclusive: 16.4 µM [falling, partial curve] | 
41 | COc1cccc(C2c3c(ncn(-c4ccc(NC(C)=O)cc4)c3=N)Oc3ccc4ccccc4c32)c1 (configuration not stated) |  | inactive: -6.1%
42 | O=C(c1nc(-c2ccc(Cl)cc2)n2c1CCCCC2)N1CCN(c2ccccc2F)CC1 | inconclusive: 23.1 µM [falling, partial curve, poor fit] | 
